The list shows a part of the results.
What follows are compounds tested on T1, CTL2-GFP (C. trachomatis L2/434/Bu, GFP-expressing). Conditions: bulk GFP, single well; 28.5 h, 10 µM; inhibitor.
T1 construct: L2/434/Bu, GFP-expressing
Design: species or system HeLa; Intracellular C. trachomatis growth in HeLa cells, bulk GFP fluorescence relative to DMSO
For `CS(=O)(=O)N1CC2(CCN(CCCOc3ccccc3)CC2)c2ccccc21` [CBK115457T], the “% of control remaining” value was 110.498%.
With `CC1CCc2c(sc3ncnc(SCC(=O)N(C)C)c23)C1` (stereo not shown) [CBK305946] the “% of control remaining” value was 98.7386%.
`CCc1c(C)nc2c(C(=O)NCc3cc(C)on3)cnn2c1C` [CBK162150] was tested, and the “% of control remaining” value was 120.612%.
With `O=C(CCc1c[nH]c2ccccc12)OCc1nnc(-c2ccccc2)o1` [CBK269642] the “% of control remaining” value was 75.3777%.
`COc1ccc(OC)c2[nH]c(C(=O)N3CCCC34CC=CC4)cc12` [CBK282814] was tested, and the “% of control remaining” value was 135.501%.
`O=C(CN1CCOCC1)Nc1ccc(Cl)cc1C(=O)c1ccccc1` [CBK086450] was tested, and the “% of control remaining” value was 100%.
With `O=C(OCc1nc2cc3ccccc3cc2[nH]1)C1CCCCC1` [CBK018307] the “% of control remaining” value was 159.484%.
In the case of `O=C(NCc1ccc(Cl)c(Cl)c1)N1CCCCC1CO` (stereo not shown) [CBK156164], the “% of control remaining” value is reported as 90.1856%.
In the case of `O=C(c1ccc(F)cc1)N1CCN(c2ccccn2)CC1` [CBK287795], the “% of control remaining” value is reported as 107.829%.
In the case of `Cc1nn2c(=O)c(CCC(=O)O)c(C)[nH]c2c1-c1ccccc1` [CBK287011], the “% of control remaining” value is reported as 143.912%.
In the case of `CCN(CC)c1ccc(C(=O)Cn2c(=O)n(S(=O)(=O)c3ccc4ccccc4c3)c3ccccc32)cc1` [CBK106505], the “% of control remaining” value is reported as 128.697%.
`COc1cc(/C(CS(C)(=O)=O)=N\O)cc(OC)c1OC` [CBK022984] was tested, and the “% of control remaining” value was 117.048%.
`Cc1nnc(CN(CC2CCCO2)C2CCCC2)n1C1CC1` (stereo not shown) [CBK304147] was tested, and the “% of control remaining” value was 113.035%.
With `CN1CCN(C(=O)Cn2cccc(C(=O)Nc3ccc(F)cc3)c2=O)C(c2ccccc2)C1` (stereo not shown) [CBK286045] the “% of control remaining” value was 137.363%.
In the case of `Cc1ccn(CCNC(=O)c2[nH]c3c(Cl)cccc3c2C)n1` [CBK282608], the “% of control remaining” value is reported as 133.585%.
In the case of `COc1cccc(C(=O)N2CCC(c3cc4ncccc4[nH]3)CC2)c1` [CBK283398], the “% of control remaining” value is reported as 105.227%.
In the case of `CC(NS(=O)(=O)Cc1ccccc1Cl)C(=O)N1CCCCC1` (stereo not shown) [CBK304928], the “% of control remaining” value is reported as 102.962%.
`CC(C)(C)c1ccc(OCC(O)Cn2c(CO)nc3ccccc32)cc1` (stereo not shown) [CBK293973] was tested, and the “% of control remaining” value was 99.2978%.
With `O=C(c1nccs1)C1CCN(C(=O)c2cccs2)CC1` [CBK284159] the “% of control remaining” value was 83.6794%.
For `COC(=O)c1ccccc1NC(=O)COc1ccc(Br)c(C)c1` [CBK263152], the “% of control remaining” value was 115.254%.
`O=C(O)CCC(=O)N1N=C2C(=Cc3ccc(F)cc3)CCCC2C1c1ccc(F)cc1` (stereo not shown) [CBK296066] was tested, and the “% of control remaining” value was 138.818%.
For `CC(C)c1ccc(N2C(=O)N[C@@H]3CCN(C(=O)COc4ccccc4)[C@@H]3C2=O)cc1` [CBK289288], the “% of control remaining” value was 141.548%.
In the case of `COc1cc(CNc2cc(C(=O)O)ccc2C)cc(Br)c1OC` [CBK269679], the “% of control remaining” value is reported as 134.432%.
In the case of `COCc1nnc(NS(=O)(=O)c2ccc(C)cc2)s1` [CBK045523], the “% of control remaining” value is reported as 128.261%.
For `CCOC(=O)C1CCN(S(=O)(=O)c2ccc(NC(=O)N3CCCC3)cc2)CC1` [CBK269823], the “% of control remaining” value was 117.145%.
For `CCCc1n[nH]c(Cc2c(Cl)cccc2Cl)c1C(=O)OCC` [CBK113275], the “% of control remaining” value was 74.9612%.
For `Cc1ccc(C23CC4CC(CC(NC(=O)NC(Cc5ccccc5)C(=O)O)(C4)C2)C3)cc1` (stereo not shown) [CBK267423], the “% of control remaining” value was 131.565%.
With `CN(C)C(=O)c1cccc(-c2nccnc2NCc2cccc([N+](=O)[O-])c2)c1` [CBK036651] the “% of control remaining” value was 132.591%.
In the case of `Cc1nn(CC(=O)OC2CCCCC2)c(=O)c2cc3sccc3n12` [CBK284045], the “% of control remaining” value is reported as 149.338%.
For `COC(=O)c1cccc2c3c([nH]c12)CCCC3` [CBK000423], the “% of control remaining” value was 125.554%.
For `Cc1cccnc1NC(=S)NCc1ccco1` [CBK268907], the “% of control remaining” value was 100.614%.
With `O=C(O)CCCNS(=O)(=O)c1ccc(C2CCCCC2)cc1` [CBK299800] the “% of control remaining” value was 132.331%.
In the case of `O=S(=O)(Cc1ccccc1)Nc1nccnc1-c1cccs1` [CBK050766], the “% of control remaining” value is reported as 116.197%.
In the case of `O=C(CCn1cccn1)N1CCC(c2cc3ncccc3[nH]2)CC1` [CBK284457], the “% of control remaining” value is reported as 122.332%.
With `CC(=O)N1Cc2ccccc2OC2(CCCN(C(=O)C3CC3)C2)C1` (stereo not shown) [CBK284991] the “% of control remaining” value was 117.647%.
`N#C/C(=C/c1cn(CCC(N)=O)c2ccccc12)c1ccc2c(c1)OCO2` [CBK267319] was tested, and the “% of control remaining” value was 143.632%.
For `O=C(CC(C(=O)O)N1CCOCC1)Nc1ccc(Cl)cc1` (stereo not shown) [CBK267086], the “% of control remaining” value was 142.326%.
With `CCn1cc(C(=O)O)c(=O)c2cc(F)c(N3CCN(C(=S)Nc4ccc5c(c4)OCO5)CC3)cc21` [CBK268027] the “% of control remaining” value was 132.821%.
With `COc1cc(CN2CCN(S(=O)(=O)c3ccc(F)cc3)CC2)cc(OC)c1O` [CBK264269G] the “% of control remaining” value was 133.92%.
In the case of `COC(=O)CCNc1n[nH]c(=O)[nH]c1=O` [CBK217927], the “% of control remaining” value is reported as 113.356%.
With `CC(C)COc1ccccc1C(=O)NCCC(=O)O` [CBK033507] the “% of control remaining” value was 106.753%.
With `O=C(Cn1cnc(-c2noc(-c3cccnc3)n2)c1)Nc1ccc(Cl)cc1` [CBK287822] the “% of control remaining” value was 112.566%.
With `CC1CC(C)CN(C(=O)c2ccc(-n3ccnc3)c(-n3cccc3)c2)C1` (stereo not shown) [CBK285372] the “% of control remaining” value was 127.012%.
`COc1ccc(CCCC(=O)Nc2cncc(OC3CCNCC3)n2)cc1OC` [CBK028437T] was tested, and the “% of control remaining” value was 102.876%.
In the case of `NS(=O)(=O)c1ccc(CNC(=O)c2cncc(-c3ccc(C(=O)N4CCOCC4)cc3)c2)cc1` [CBK158641], the “% of control remaining” value is reported as 114.552%.
For `COc1ccc2ccccc2c1CNc1ccc(N2CCOCC2)c(C(=O)O)c1` [CBK269376], the “% of control remaining” value was 135.285%.
With `CS(=O)(=O)Nc1ccccc1C(=O)NCc1ccccn1` [CBK268494] the “% of control remaining” value was 137.426%.
With `CCOc1cccc(-c2cn3ccnc3c(N(C)CCN(C)C)n2)c1` [CBK066569] the “% of control remaining” value was 177.496%.
In the case of `COc1cc(CNC(=O)c2cnoc2-c2ccc(Br)cc2)cc(OC)c1OC` [CBK154893], the “% of control remaining” value is reported as 105.982%.
With `c1ccc(N2CCN(C3c4ccccc4Sc4ccccc43)CC2)cc1` [CBK066894] the “% of control remaining” value was 107.302%.
For `COCC(=O)N[C@H]1CCN2C(=O)c3cc(-c4ccccc4F)ccc3NC(=O)[C@@H]2C1` [CBK289553], the “% of control remaining” value was 106.249%.
For `Fc1cc(F)c(OCCCCOc2nccnc2N2CCNCC2)cc1F` [CBK028624T], the “% of control remaining” value was 100.092%.
In the case of `CCNC(=O)NC1CC(C)(C)Cc2c1cnn2-c1ccc(OC)cc1` (stereo not shown) [CBK307313], the “% of control remaining” value is reported as 125.964%.
`CCN1CCN(C(=O)C2CC(C)=C(C)CC2C(=O)O)CC1` (stereo not shown) [CBK270311] was tested, and the “% of control remaining” value was 144.385%.
For `CCC(=O)NC(=S)Nc1ccc(C(=O)N2CCCC2)cc1` [CBK288464], the “% of control remaining” value was 123.177%.
`O=C(NC(=O)C1CCN(CC2COc3ccccc3O2)CC1)Nc1ccccc1` (stereo not shown) [CBK035267] was tested, and the “% of control remaining” value was 151.547%.
For `Cc1nn(C)c(C)c1NC(=O)CN1CCN(c2ccccc2Cl)CC1` [CBK306058], the “% of control remaining” value was 104.629%.
`CC(Oc1cccc(C#N)c1)C(=O)NCC1(N2CCOCC2)CCSC1` (stereo not shown) [CBK305780] was tested, and the “% of control remaining” value was 169.353%.
With `Cc1nnc(N/N=C\c2ccco2)n1N` [CBK028824C] the “% of control remaining” value was 76.0915%.
With `O=C1NC2(CCNCC2)Oc2ccc(-c3cccc4ncccc34)cc21` [CBK083775T] the “% of control remaining” value was 117.279%.
In the case of `Cc1cc(NC(=O)CN2CCN(Cc3ccc(Cl)nc3)CC2)no1` [CBK305504], the “% of control remaining” value is reported as 165.356%.
For `COCCN(C(=O)c1nc2cccnc2s1)C1CCS(=O)(=O)C1` (stereo not shown) [CBK304091], the “% of control remaining” value was 118.194%.
In the case of `C=CCN(C)C(=O)[C@H]1C[C@@H](O)[C@H](O)[C@@H]2N=C(Nc3ccc(Cl)cc3)S[C@@H]21` [CBK288946], the “% of control remaining” value is reported as 131.848%.
In the case of `CN(C)C(=O)c1cn2cc(-c3cccs3)n(CC3CC3)c(=O)c2n1` [CBK307440], the “% of control remaining” value is reported as 126.112%.
For `Cc1ccc(-c2csc(NC(=O)c3ccccc3C(=O)O)n2)cc1` [CBK072083], the “% of control remaining” value was 106.762%.
With `COCCCn1c(CCC(=O)O)ccc1-c1ccc(F)cc1` [CBK267886] the “% of control remaining” value was 109.519%.
With `O=S(=O)(Nc1nccnc1N1CCN(c2cnccn2)CC1)c1ccc(Cl)cc1` [CBK049664] the “% of control remaining” value was 154.142%.
With `O=c1[nH]c(N2CCC3(CC2)OCCO3)nc2c(-c3ccccc3Cl)csc12` [CBK291128] the “% of control remaining” value was 78.6965%.
`CSc1nsc(SCC(=O)Nc2ccc(OC(C)=O)cc2)n1` [CBK268948] was tested, and the “% of control remaining” value was 160.81%.
With `C#CCNCCCOc1ccccc1Oc1ccccc1` [CBK017707C] the “% of control remaining” value was 120.375%.
For `Cn1cc(CNCC2CCN(CCO)CC2)c(-c2cccnc2)n1` [CBK305153], the “% of control remaining” value was 94.4234%.
In the case of `NNS(=O)(=O)c1ccc(Oc2ccc([N+](=O)[O-])cc2)cc1` [CBK261669], the “% of control remaining” value is reported as 111.768%.
In the case of `O=C(NCCn1nc(-c2ccco2)ccc1=O)C1CCCC1` [CBK283707], the “% of control remaining” value is reported as 138.785%.
`CCOC(=O)c1cnc2c(C)cc(C)cc2c1NCCCN(C)C` [CBK266021] was tested, and the “% of control remaining” value was 217.078%.
With `O=C1c2ccccc2C(=O)N1CCOc1nccnc1-c1cnn(Cc2ccccc2)c1` [CBK107089] the “% of control remaining” value was 126.156%.
`CCC(=O)Nc1ccc(C(=O)N2CCN(c3ccccc3)CC2)cc1` [CBK307425] was tested, and the “% of control remaining” value was 138.271%.
`O=C(O)COc1ccc(C=C2C(=O)c3ccccc3C2=O)cc1Cl` [CBK263857] was tested, and the “% of control remaining” value was 100%.
With `CCn1c(SCC(=O)O)nnc1-c1c[nH]c2ccccc12` [CBK287089] the “% of control remaining” value was 111.802%.
In the case of `COc1cc(F)cc(OC2CCNCC2)c1NC(=O)Cc1c[nH]c2ccccc12` [CBK050246T], the “% of control remaining” value is reported as 101.933%.
